Data reported in the supplement of paper PMC8007513.
The list shows a part of the results. Single values are uncertain, as repeats are few or missing.

System: Saccharomyces cerevisiae BY4743
Assay: growth (OD600) with compound + IPBC relative to untreated control; higher = less growth inhibition
Conditions: compound concentration: 133 uM; IPBC concentration: 0.5 ug/ml; 20 h
Procedure: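 NMCCC compounds (133 uM) combined with IPBC (0.5 ug/ml) against Saccharomyces cerevisiae BY4743 in YPD, 96-well plates. Growth was read as OD600 at 20 h and expressed as % of the untreated control. Single pass.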

| SMILES | growth [%] |
| --- | --- |
| CC(CCc1ccccc1)NC(=O)N(C)Cc1nc(O)c2sccc2n1 (stereo unspecified) + CCCCNC(=O)OCC#CI [3-iodo-2-propynyl butylcarbamate (IPBC)] | 99.9 |
| Oc1ccc(Cl)cc1-c1cc(-c2ccco2)[nH]n1 + CCCCNC(=O)OCC#CI [3-iodo-2-propynyl butylcarbamate (IPBC)] | 3.22 |
| Cc1ccc(-c2noc(CCCC(=O)Nc3nncs3)n2)cc1 + CCCCNC(=O)OCC#CI [3-iodo-2-propynyl butylcarbamate (IPBC)] | 79.3 |
| COc1cccc(-c2nc(NCCO)c3ccccc3n2)c1 + CCCCNC(=O)OCC#CI [3-iodo-2-propynyl butylcarbamate (IPBC)] | 87.2 |
| COc1ccc(CN(C)C(=O)c2sc(NC(=O)c3ccco3)cc2C)c(OC)c1 + CCCCNC(=O)OCC#CI [3-iodo-2-propynyl butylcarbamate (IPBC)] | 108 |
| Cc1cc(C)nc(NS(=O)(=O)c2ccc(-n3cnnn3)cc2)n1 + CCCCNC(=O)OCC#CI [3-iodo-2-propynyl butylcarbamate (IPBC)] | 100 |
| COc1ccc(NC(=O)CCc2cccs2)cc1S(=O)(=O)N1CCOCC1 + CCCCNC(=O)OCC#CI [3-iodo-2-propynyl butylcarbamate (IPBC)] | 99.2 |
| CCCc1cc(O)nc(SCC(=O)Nc2c(C)nn(-c3ccccc3)c2C)n1 + CCCCNC(=O)OCC#CI [3-iodo-2-propynyl butylcarbamate (IPBC)] | 99.3 |
| COc1ccc(-c2nnc(SCC(=O)OC(C)C)n2-c2ccccc2)cc1 + CCCCNC(=O)OCC#CI [3-iodo-2-propynyl butylcarbamate (IPBC)] | 91.7 |
| COc1ccc(S(=O)(=O)N(C)C)cc1NC(=O)CNC(c1ccccc1)C(C)C (stereo unspecified) + CCCCNC(=O)OCC#CI [3-iodo-2-propynyl butylcarbamate (IPBC)] | 90.8 |
| CC(C)(C)c1cc(N)n(-c2ccc(C(=O)O)cc2)n1 + CCCCNC(=O)OCC#CI [3-iodo-2-propynyl butylcarbamate (IPBC)] | 99.6 |
| CSc1nc(C)c(CCC(=O)OCc2ccc(C(=O)N3CCCC3)cc2)c(C)n1 + CCCCNC(=O)OCC#CI [3-iodo-2-propynyl butylcarbamate (IPBC)] | 99.9 |
| Cn1cccc1C(=O)NC(=O)COc1ccccc1C#N + CCCCNC(=O)OCC#CI [3-iodo-2-propynyl butylcarbamate (IPBC)] | 95.1 |
| Cc1cc2nc(O)c(O)nc2cc1S(=O)(=O)NCc1ccco1 + CCCCNC(=O)OCC#CI [3-iodo-2-propynyl butylcarbamate (IPBC)] | 112 |
| Cn1ccc(S(=O)(=O)N2CCC(C(=O)Nc3ccccc3OCC(F)(F)F)CC2)c1 + CCCCNC(=O)OCC#CI [3-iodo-2-propynyl butylcarbamate (IPBC)] | 95.4 |
| CC(C)c1nc(SC(C(=O)Nc2ccc(F)cc2)C(C)C)n[nH]1 (stereo unspecified) + CCCCNC(=O)OCC#CI [3-iodo-2-propynyl butylcarbamate (IPBC)] | 104 |
| Cc1nc(C)c(C#N)c(SCc2nc(O)c3cccc(C)c3n2)n1 + CCCCNC(=O)OCC#CI [3-iodo-2-propynyl butylcarbamate (IPBC)] | 96.4 |
| CCN(CC)S(=O)(=O)c1cccc(C(=O)N[C@H](C(=O)Nc2ccc3c(c2)OCCO3)C(C)C)c1 + CCCCNC(=O)OCC#CI [3-iodo-2-propynyl butylcarbamate (IPBC)] | 109 |
| CCN(CC)\C1=C(/C(=O)N2CCOCC2)[S](=O)(=O)C3=CC=CC=C13 + CCCCNC(=O)OCC#CI [3-iodo-2-propynyl butylcarbamate (IPBC)] | 106 |
| CC\1(C)CC2=CC=CC=C2\C(=N1)CSC3=CC=CC=C3C(O)=O + CCCCNC(=O)OCC#CI [3-iodo-2-propynyl butylcarbamate (IPBC)] | 102 |
| CCOC(=O)C1Sc2nnc(C(F)(F)F)n2NC1c1ccccc1 (stereo unspecified) + CCCCNC(=O)OCC#CI [3-iodo-2-propynyl butylcarbamate (IPBC)] | 77.3 |

As entered above:
CC(C)c1nc(SC(C(=O)Nc2ccc(F)cc2)C(C)C)n[nH]1 (stereo unspecified) + CCCCNC(=O)OCC#CI [3-iodo-2-propynyl butylcarbamate (IPBC)] | growth [%]: 104
CCCc1cc(O)nc(SCC(=O)Nc2c(C)nn(-c3ccccc3)c2C)n1 + CCCCNC(=O)OCC#CI [3-iodo-2-propynyl butylcarbamate (IPBC)] | growth [%]: 99.3
